Measured values published in US20230085269A1.
These are yes or no findings as the source states them, for the method shown. Some entries that bind do so weakly or less than the wild type.

Amino acid sequences for entries named in this document (tags omitted). Residues count along the entry.
UniProt P15941, residues 24-1255: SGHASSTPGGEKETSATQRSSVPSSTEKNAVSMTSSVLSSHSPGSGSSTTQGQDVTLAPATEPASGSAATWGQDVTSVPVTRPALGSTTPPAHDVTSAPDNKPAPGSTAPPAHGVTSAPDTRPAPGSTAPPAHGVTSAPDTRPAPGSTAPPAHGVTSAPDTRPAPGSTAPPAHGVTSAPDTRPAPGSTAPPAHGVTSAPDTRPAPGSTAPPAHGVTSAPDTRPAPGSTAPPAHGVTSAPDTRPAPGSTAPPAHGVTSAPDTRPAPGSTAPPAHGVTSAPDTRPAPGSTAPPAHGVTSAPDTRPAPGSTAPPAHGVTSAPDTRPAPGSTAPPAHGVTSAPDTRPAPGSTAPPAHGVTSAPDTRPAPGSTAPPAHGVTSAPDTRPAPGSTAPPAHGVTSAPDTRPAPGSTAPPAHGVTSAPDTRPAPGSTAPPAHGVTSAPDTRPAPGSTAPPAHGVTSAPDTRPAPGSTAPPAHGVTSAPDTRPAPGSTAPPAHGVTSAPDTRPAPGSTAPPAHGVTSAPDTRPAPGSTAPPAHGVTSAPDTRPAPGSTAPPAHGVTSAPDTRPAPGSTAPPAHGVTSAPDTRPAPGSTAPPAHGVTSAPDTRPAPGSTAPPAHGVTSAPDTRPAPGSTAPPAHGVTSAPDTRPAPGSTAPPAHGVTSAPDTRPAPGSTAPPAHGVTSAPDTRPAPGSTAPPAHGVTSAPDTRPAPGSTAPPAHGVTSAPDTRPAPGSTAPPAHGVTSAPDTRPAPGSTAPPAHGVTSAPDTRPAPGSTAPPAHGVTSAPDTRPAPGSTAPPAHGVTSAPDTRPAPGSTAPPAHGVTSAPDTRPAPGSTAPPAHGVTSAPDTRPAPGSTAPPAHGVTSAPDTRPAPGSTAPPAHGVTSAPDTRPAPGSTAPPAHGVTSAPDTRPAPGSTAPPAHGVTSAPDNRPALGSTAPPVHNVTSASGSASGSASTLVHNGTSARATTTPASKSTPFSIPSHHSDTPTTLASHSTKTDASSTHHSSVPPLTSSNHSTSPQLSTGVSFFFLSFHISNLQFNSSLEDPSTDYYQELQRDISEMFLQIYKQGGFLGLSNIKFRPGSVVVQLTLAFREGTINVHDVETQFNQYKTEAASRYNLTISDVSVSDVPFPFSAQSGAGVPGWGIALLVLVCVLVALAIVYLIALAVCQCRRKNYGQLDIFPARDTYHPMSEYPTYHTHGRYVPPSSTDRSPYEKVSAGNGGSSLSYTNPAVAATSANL

Legend:
[1] = target: MUC1-TM (full-length human transmembrane MUC1 protein) (human) (UniProt P15941); assay: flow cytometry on human cancer cell lines Colo357, T47D, ZR75
[2] = target: MUC1-TM (full-length human transmembrane MUC1 protein) (human) (UniProt P15941); assay: immunohistochemistry, paraffin embedded microarrays of lung, prostate, colon and breast carcinomas
[3] = target: MUC1-TM (full-length human transmembrane MUC1 protein) (human) (UniProt P15941); assay: flow cytometry on DA3-TM transfectants, DMB5F3 0.5 µg/ml; DA3-PAR cells negative
[4] = target: MUC1-TM (full-length human transmembrane MUC1 protein) (human) (UniProt P15941); assay: immunohistochemistry, tissue microarrays
[5] = target: MUC1-TM (full-length human transmembrane MUC1 protein) (human) (UniProt P15941); assay: immunohistochemistry of lung, prostate and colon carcinomas
[6] = target: MUC1-TM (full-length human transmembrane MUC1 protein) (human) (UniProt P15941); assay: immunohistochemistry, paraffin-embedded normal and malignant pancreatic tissue
[7] = target: MUC1-TM (full-length human transmembrane MUC1 protein) (human) (UniProt P15941); assay: immunohistochemistry of pancreatic, breast, lung, prostate and colon carcinomas
[8] = target: MUC1-TM (full-length human transmembrane MUC1 protein) (human) (UniProt P15941); assay: flow cytometry on cells expressing MUC1-TM
[9] = target: MUC1-TM (full-length human transmembrane MUC1 protein) (human) (UniProt P15941); assay: immunohistochemistry, paraffin-embedded pancreatic and breast tissue
[10] = target: MUC1-TM (full-length human transmembrane MUC1 protein) (human) (UniProt P15941); assay: immunohistochemistry on fresh frozen (FF) and paraffin embedded formaldehyde fixed (PEFF) tissue sections

Measured: binding

B1: DMB5F3 (antibody, V domains shown)
VH: DVQVQESGPDLVKPSQSLSLTCTVTGHSITRGSSWHWIRQFPGNKLEWMGYIHYGGGTSYNPSLKSRISITRDTSKNQFFLQLNSVTTEDTATFFCARYSYDITYRWFFDVWGAGTTVIVSS
VL: DILLTQSPAILSVSPGERVSFSCRASQNIGTSIHWYQQRKNGSPRLLIKYASESISGIPSRFSGSGSGTDFTLSINSVESEDMADYYCQQNNNWPLTFGAGTKLELK
binds: all assays above
